Data published in the supplement of paper PMC10849652.
Some of the results follow.

Amino acid sequences for entries named in this document (tags omitted). A change or cut given only in a name is not applied to a line headed by its entry.
UniProt Q86YA3: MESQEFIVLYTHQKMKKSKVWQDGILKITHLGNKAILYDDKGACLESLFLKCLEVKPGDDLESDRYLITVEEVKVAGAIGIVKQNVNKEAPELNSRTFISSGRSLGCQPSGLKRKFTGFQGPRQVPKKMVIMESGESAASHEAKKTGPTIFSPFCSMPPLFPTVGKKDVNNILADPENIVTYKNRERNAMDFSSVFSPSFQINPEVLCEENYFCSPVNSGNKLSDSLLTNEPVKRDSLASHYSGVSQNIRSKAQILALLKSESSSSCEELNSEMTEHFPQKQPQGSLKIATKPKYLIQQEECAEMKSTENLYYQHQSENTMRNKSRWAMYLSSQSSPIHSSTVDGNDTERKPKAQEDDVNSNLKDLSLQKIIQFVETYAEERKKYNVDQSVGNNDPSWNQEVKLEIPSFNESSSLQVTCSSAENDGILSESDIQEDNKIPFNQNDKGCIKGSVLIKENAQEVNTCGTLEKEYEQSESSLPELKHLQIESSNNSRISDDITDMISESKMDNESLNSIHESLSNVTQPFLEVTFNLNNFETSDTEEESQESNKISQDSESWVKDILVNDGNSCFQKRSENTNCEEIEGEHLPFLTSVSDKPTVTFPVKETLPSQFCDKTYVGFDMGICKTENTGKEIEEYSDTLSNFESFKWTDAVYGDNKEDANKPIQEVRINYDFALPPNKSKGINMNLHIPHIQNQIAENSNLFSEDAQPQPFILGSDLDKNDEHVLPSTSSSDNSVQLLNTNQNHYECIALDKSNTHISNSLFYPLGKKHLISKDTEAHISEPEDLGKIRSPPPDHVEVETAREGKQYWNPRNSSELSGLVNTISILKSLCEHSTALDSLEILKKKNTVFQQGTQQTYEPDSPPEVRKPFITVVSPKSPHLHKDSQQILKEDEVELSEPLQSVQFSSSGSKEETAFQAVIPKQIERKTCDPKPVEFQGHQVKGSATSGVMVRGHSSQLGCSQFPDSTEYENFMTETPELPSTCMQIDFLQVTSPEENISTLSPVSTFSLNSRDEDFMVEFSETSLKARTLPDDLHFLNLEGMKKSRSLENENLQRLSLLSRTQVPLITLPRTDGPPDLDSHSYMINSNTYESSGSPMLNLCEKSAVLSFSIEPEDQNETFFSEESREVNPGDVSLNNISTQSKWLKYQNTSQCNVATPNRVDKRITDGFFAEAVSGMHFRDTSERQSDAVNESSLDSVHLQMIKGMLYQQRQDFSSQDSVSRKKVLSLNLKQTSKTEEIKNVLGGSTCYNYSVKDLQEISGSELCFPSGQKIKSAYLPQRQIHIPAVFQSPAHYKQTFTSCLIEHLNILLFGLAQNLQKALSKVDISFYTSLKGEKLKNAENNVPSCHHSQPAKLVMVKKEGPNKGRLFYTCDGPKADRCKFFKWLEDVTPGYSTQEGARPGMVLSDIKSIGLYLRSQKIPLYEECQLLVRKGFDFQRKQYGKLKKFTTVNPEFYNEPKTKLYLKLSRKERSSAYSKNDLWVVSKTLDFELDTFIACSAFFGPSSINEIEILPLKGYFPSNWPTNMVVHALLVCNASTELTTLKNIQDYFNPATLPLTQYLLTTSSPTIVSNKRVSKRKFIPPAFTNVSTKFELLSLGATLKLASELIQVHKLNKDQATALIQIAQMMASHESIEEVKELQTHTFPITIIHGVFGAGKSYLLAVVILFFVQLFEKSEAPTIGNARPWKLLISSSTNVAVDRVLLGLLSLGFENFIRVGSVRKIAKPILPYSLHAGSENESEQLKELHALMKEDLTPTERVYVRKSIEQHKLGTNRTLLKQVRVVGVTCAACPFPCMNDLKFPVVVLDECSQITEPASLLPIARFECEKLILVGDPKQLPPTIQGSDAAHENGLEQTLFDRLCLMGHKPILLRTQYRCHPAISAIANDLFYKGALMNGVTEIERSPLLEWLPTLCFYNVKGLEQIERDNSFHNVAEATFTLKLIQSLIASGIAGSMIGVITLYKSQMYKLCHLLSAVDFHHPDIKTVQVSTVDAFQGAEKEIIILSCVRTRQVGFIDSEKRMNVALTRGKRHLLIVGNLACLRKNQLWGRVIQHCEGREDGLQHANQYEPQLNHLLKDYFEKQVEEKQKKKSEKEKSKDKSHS
UniProt Q15696: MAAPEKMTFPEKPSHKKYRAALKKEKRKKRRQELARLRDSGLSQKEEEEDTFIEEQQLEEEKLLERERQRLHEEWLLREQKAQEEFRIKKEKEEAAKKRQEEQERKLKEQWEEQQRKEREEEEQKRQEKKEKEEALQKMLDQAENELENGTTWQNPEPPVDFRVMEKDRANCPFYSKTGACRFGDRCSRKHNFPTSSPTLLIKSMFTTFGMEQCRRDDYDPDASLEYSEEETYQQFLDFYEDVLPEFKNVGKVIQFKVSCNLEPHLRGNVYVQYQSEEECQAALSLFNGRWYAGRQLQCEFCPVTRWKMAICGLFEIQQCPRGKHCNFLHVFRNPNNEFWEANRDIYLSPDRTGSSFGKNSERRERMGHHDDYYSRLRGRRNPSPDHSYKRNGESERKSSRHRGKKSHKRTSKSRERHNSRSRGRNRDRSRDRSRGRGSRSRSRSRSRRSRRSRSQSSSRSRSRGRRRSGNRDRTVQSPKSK
UniProt Q96MX3: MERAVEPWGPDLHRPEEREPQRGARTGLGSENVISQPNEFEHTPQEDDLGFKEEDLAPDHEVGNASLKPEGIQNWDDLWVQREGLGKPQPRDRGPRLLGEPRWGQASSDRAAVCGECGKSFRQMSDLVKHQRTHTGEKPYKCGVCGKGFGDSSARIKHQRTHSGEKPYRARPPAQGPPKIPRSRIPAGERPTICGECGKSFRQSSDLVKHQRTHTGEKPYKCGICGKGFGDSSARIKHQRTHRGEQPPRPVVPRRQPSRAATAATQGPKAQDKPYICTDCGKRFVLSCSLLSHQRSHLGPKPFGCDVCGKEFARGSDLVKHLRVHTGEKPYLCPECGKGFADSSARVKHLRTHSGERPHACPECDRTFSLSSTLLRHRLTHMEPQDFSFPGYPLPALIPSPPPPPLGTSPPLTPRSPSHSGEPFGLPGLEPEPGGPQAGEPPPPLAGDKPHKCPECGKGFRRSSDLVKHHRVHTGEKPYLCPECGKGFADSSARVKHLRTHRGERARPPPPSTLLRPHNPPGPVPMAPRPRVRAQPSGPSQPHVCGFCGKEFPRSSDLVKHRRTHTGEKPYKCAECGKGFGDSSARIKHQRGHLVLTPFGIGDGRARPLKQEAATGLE
UniProt Q9UJN7: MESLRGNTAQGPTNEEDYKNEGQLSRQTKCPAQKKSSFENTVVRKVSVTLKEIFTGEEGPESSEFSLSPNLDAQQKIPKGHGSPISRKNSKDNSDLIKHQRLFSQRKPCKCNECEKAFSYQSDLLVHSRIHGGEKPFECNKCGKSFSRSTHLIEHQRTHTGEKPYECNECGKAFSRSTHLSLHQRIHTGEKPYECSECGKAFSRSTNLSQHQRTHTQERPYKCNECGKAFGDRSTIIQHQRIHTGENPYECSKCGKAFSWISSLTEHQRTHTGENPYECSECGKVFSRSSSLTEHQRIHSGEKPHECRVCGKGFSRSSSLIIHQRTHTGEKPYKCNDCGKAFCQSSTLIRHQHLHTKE
UniProt Q96PM9: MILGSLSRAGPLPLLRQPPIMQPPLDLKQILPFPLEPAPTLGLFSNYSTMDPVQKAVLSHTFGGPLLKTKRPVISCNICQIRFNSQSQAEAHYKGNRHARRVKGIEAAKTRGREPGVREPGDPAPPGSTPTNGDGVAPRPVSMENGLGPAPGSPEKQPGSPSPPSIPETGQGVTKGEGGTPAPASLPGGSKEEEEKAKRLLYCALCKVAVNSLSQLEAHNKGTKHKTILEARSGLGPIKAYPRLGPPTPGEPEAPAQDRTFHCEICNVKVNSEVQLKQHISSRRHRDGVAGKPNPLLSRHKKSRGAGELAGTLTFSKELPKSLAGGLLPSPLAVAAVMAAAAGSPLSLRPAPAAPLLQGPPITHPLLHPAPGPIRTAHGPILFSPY
UniProt Q8N1G0: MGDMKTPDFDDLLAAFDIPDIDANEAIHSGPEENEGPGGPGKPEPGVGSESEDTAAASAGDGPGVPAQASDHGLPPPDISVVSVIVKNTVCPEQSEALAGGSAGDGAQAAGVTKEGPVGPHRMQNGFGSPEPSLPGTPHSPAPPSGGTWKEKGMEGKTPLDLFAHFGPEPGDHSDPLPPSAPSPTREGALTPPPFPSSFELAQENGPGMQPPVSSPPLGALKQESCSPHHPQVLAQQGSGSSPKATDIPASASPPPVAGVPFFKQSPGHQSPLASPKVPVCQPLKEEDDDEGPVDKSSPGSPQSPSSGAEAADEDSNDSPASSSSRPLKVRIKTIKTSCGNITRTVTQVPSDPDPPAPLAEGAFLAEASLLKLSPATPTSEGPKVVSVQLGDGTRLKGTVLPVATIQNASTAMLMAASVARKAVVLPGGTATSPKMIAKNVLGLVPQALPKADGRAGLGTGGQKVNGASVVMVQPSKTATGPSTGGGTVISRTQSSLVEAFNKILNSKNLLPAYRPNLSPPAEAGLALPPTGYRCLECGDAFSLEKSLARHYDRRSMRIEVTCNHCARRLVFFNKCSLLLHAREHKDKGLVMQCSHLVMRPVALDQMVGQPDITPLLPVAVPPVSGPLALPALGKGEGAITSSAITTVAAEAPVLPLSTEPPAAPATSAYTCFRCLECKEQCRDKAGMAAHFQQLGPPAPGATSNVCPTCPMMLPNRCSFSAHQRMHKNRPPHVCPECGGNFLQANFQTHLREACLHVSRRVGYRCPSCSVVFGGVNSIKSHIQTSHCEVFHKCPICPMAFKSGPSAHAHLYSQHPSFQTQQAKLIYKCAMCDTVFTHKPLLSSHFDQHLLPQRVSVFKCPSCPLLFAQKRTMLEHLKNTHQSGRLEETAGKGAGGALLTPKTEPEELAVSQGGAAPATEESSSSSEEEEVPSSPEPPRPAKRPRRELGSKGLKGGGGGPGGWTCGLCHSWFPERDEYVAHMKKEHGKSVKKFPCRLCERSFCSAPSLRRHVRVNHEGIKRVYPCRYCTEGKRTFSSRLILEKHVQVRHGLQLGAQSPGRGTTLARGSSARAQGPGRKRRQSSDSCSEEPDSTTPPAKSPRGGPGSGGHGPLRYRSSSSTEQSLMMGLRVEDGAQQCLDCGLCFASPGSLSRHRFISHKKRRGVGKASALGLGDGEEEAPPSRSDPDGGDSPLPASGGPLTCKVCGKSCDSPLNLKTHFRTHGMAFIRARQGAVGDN
UniProt Q96E35: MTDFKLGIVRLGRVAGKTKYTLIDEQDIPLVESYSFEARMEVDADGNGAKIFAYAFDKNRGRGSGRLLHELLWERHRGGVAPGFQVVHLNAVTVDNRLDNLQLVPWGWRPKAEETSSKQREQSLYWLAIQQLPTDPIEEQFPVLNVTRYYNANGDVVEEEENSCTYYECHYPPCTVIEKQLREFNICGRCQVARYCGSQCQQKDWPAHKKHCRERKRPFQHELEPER
ZNF654, A0A1B0GWA0, UniProt A0A1B0GWA0, whole entry, looked up: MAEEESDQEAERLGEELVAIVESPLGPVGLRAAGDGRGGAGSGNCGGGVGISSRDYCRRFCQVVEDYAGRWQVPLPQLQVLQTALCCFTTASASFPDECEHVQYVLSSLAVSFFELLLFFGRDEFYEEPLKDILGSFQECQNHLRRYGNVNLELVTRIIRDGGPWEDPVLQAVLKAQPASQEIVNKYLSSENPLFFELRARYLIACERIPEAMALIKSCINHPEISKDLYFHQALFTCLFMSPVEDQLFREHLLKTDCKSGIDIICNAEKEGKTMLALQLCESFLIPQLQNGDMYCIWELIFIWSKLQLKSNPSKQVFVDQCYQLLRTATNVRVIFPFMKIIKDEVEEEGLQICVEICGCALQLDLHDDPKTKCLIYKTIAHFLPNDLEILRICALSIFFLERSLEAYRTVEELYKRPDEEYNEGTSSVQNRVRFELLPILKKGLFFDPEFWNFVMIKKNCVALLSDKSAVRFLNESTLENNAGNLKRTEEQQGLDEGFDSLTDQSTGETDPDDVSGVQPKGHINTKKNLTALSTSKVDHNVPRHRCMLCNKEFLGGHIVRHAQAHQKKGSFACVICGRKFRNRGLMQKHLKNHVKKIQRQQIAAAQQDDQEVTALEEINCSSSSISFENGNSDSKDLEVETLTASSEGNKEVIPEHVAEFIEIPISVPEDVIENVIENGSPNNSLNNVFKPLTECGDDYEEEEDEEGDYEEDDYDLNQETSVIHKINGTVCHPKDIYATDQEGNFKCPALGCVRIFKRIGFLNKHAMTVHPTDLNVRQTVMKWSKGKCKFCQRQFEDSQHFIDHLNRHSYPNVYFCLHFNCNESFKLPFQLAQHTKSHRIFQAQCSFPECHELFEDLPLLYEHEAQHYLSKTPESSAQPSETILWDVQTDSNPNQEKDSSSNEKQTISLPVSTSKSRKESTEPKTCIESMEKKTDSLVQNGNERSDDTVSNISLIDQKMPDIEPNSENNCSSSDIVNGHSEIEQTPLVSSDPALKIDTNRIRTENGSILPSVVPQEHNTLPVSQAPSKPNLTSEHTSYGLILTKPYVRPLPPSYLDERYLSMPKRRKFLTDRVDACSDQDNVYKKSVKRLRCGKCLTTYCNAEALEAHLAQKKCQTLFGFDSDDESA

Columns and labels:
Experiment in all cases: log2 fold change, soluble protein after heating vs DMSO (PISA); higher = thermal stabilisation; K562 lysate, 10 uM; active = over 0.2 and 3.5 SD of the protein, either way, in both replicates (recomputed)
vorinostat = compound: O=C(CCCCCCC(=O)Nc1ccccc1)NO [vorinostat]
Outline: (§1)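 Log-two fold change in thermal stability relative to solvent controls is reported from duplicates. For each sample, crude K562 extract from dounce-homogenised pellets in PBS pH 7.4 with 1 mM MgCl2, at 1 mg/mL protein, was treated with 10 μM compound for 30 min. Aliquots heated for 3 min across 48°C-58°C were pooled, brought to 0.5% NP-40 at 4°C and cleared at 21,000xg for 90 min. The supernatant was quantified by TMTpro 16plex LC-MS/MS with channel sums equalised.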

silmitasertib = compound: O=C(O)c1ccc2c(c1)nc(Nc1cccc(Cl)c1)c1ccncc12 [silmitasertib]
Outline: as §1

[1] = compound: O=C1NC(=O)C(c2cnc3ccccn23)=C1c1cn2c3c(cc(F)cc13)CN(C(=O)N1CCCCC1)CC2
Outline: as §1

entospletinib = compound: c1cn2cc(-c3ccc4cn[nH]c4c3)nc(Nc3ccc(N4CCOCC4)cc3)c2n1 [entospletinib]
Outline: as §1

| Target | log2 fold change (vorinostat) | log2 fold change (silmitasertib) | log2 fold change [1] | log2 fold change (entospletinib) |
| --- | --- | --- | --- | --- |
| ZNF561-AS1 (UniProt K7EIQ3) | inactive: 0.133 | inactive: 0.232 |  |  |
| ZNF655 isoform 3 (UniProt Q8N720) |  |  | inactive: 0.078 | inactive: 0.06 |
| ZNF346 (UniProt Q9UL40) | inactive: 0.137 | inactive: 0.018 | inactive: -0.05 | inactive: 0.02 |
| ZNF324 (UniProt O75467) |  |  | inactive: -0.187 |  |
| ZNF816 (UniProt Q0VGE8) |  |  | inactive: 0.082 |  |
| ZNF280A, A0A0G2JN84 |  |  | inactive: -0.038 |  |
| ZNF669 (UniProt Q96BR6) | inactive: 0.103 | inactive: 0.006 | inactive: -0.09 |  |
| ZNF444 (UniProt Q8N0Y2) |  |  | inactive: 0.239 |  |
| ZNF808 (UniProt Q8N4W9) |  |  | inactive: 0.443 |  |
| ZSCAN26 (UniProt Q16670) |  |  | inactive: -0.024 |  |
| ZSCAN21 (UniProt Q9Y5A6) |  |  |  | inactive: -0.208 |
| ZNF770 (UniProt Q6IQ21) |  |  | inactive: -0.065 |  |
| ZNF384 (UniProt Q8TF68) | inactive: 0.128 | inactive: -0.059 | inactive: -0.123 | inactive: 0.214 |
| ZNF100 (UniProt Q8IYN0) |  |  | inactive: 0.19 |  |
| ZGRF1 (UniProt Q86YA3) |  |  | inactive: -0.042 | inactive: -0.031 |
| ZNF652 (UniProt Q9Y2D9) |  |  | inactive: -0.042 |  |
| ZNF74 isoform 5 (UniProt Q16587) | inactive: 0.037 | inactive: 0.133 |  | inactive: 0.111 |
| ZNF414 isoform 2 (UniProt Q96IQ9) |  |  | inactive: -0.076 | inactive: -0.108 |

Pulled one by one from the list above (2):

| Target | log2 fold change (vorinostat) | log2 fold change (silmitasertib) | log2 fold change [1] | log2 fold change (entospletinib) |
| --- | --- | --- | --- | --- |
| ZSCAN21 (UniProt Q9Y5A6) |  |  |  | inactive: -0.208 |
| ZNF74 isoform 5 (UniProt Q16587) | inactive: 0.037 | inactive: 0.133 |  | inactive: 0.111 |

Remaining list, next part:

| Target | log2 fold change (vorinostat) | log2 fold change (silmitasertib) | log2 fold change [1] | log2 fold change (entospletinib) |
| --- | --- | --- | --- | --- |
| ZNF410 isoform 5 (UniProt Q86VK4) |  |  | inactive: -0.085 | inactive: 0.022 |
| ZRSR2 (UniProt Q15696) |  |  | inactive: -0.022 |  |
| ZNF574 isoform 2 (UniProt Q6ZN55) | inactive: 0.107 | inactive: 0.036 | inactive: -0.159 | inactive: -0.095 |
| ZNF48 (UniProt Q96MX3) |  |  |  | inactive: -0.022 |
| ZNHIT1 (UniProt O43257) | inactive: 0.001 | inactive: 0.011 |  | inactive: -0.008 |
| ZNF391 (UniProt Q9UJN7) |  |  |  | inactive: 0.17 |
| ZNF385A (UniProt Q96PM9) | inactive: 0.049 | inactive: 0.037 | inactive: -0.01 |  |
| ZNF184 (UniProt Q99676) |  |  | inactive: 0.124 |  |
| ZNF627 (UniProt Q7L945) | inactive: -0.325 | inactive: -0.358 | inactive: -0.067 |  |
| ZNF687 (UniProt Q8N1G0) | inactive: -0.056 | inactive: -0.028 | inactive: -0.079 | inactive: -0.105 |
| ZNF101 (UniProt Q8IZC7) | inactive: -0.207 | inactive: 0.265 | inactive: -0.022 |  |
| ZNF16 (UniProt P17020) |  |  | inactive: -0.005 |  |
| ZMYND19 (UniProt Q96E35) | inactive: 0.008 | inactive: -0.092 | inactive: 0.015 |  |
| ZNF592 (UniProt Q92610) | inactive: -0.231 | inactive: 0.064 | inactive: -0.038 | inactive: 0 |
| ZNF646 (UniProt O15015) |  |  | inactive: 0.03 |  |
| ZNF654, A0A1B0GWA0 | inactive: -0.212 | inactive: -0.023 | inactive: 0.171 |  |
| ZNF280A (UniProt P59817) | inactive: -0.333 | inactive: -0.066 | inactive: 0.01 |  |
